Laboratory results reported in article PMC7335050, “Characterization of an alternative BAK-binding site for BH3 peptides” (Nature Communications, 2020).
Changes are numbered by the printed parent chain. No constants are given. Whether binding was seen depends on the method and setting. Binding seen in cells or lysates may run through a third protein. Some results given as binding are weak or reduced against the parent protein; the word gives no strength. Sequences can lack the tags named with a protein.

Amino acid sequences for entries named in this document (tags omitted).
UniProt P10417: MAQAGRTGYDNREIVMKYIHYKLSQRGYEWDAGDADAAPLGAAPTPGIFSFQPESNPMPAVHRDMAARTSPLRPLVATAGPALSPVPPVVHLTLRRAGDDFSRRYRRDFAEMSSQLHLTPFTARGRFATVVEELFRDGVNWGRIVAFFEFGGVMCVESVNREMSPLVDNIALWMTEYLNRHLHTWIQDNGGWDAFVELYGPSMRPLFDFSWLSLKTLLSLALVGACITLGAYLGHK
UniProt P97287: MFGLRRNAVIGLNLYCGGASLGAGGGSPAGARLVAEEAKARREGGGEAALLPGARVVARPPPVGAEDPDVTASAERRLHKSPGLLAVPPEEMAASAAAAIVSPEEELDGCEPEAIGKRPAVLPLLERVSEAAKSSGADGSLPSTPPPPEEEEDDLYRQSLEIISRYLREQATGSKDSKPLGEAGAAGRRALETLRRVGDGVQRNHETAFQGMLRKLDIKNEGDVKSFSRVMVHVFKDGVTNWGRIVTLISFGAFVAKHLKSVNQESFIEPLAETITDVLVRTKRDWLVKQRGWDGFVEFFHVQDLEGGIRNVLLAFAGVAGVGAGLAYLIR

What was measured:
S-tagged WT BAK (human) = molecular target: T1, S-tagged WT BAK (human) (UniProt Q16611); assay: pull-down; S-tagged BAK or BAK F161A transfected into Bak−/−Bax−/− MEFs with 10 μM Q-VD-OPh for 24 h; CHAPS lysates (400 μg) incubated 24 h at 4 °C with S-protein agarose, blotted for the indicated proteins
T1 sequence: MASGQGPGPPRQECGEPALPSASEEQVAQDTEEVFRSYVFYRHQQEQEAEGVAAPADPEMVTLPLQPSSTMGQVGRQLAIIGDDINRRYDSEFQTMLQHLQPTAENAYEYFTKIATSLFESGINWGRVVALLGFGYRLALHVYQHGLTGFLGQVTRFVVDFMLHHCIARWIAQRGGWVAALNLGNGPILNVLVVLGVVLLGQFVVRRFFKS

[1] = molecular target: T2, S-tagged F161A BAK (human) (UniProt Q16611); assay: as above
T2 sequence: T1 sequence with F161A

Row | binding (S-tagged WT BAK (human)) | binding [1] | Substance
1 | binds | binds | BCL2 (in MEFs) (from UniProt P10417 1-236)
2 | binds | binds | BCLXL (in MEFs) (from UniProt Q64373-1 1-233)
3 | binds | binds | MCL1 (in MEFs) (from UniProt P97287 1-331)
